Measurements from paper PMC5240623.
Construct, isoform or probe ends are uncertain for at least one entry. For some of these results: A negative result means that nothing was seen under these conditions. For some of these results: Where a protein sequence is shown, tags need not be part of it.

Key:
[1] = system: EmMBD2/3 MBD, tag removed (Ephydatia muelleri); test: NMR; settings: 15N-HSQC, recombinant protein, protein details: thioredoxin tag cleaved by thrombin
[2] = target: T1, DmMBD2/3 MBD, tag removed (Drosophila melanogaster) (UniProt Q9VHB7); test: NMR; settings: 15N-HSQC, no chemical shift changes, recombinant protein, residues 1-87, protein details: thioredoxin tag cleaved by thrombin
T1 sequence (looked up): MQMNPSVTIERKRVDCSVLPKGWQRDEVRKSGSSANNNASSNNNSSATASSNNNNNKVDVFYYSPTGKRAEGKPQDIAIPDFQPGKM

Row | Sequence | binding result ([1]; fast exchange of CpG-specific and non-specific modes) | binding result [2] | binding result ([1]; localizes almost exclusively to mCpG, 5-methyl-C at C9 of strand 1 and C8 of strand 2 (central CpG)) | binding result ([2]; 5-methyl-C at C9 of strand 1 and C8 of strand 2 (central CpG))
1 | GAGGCGCTCGGCGGCAG (double strand) [CpG(x3) 17 bp] | binds | no binding |  | 
2 | GAGGCGCTCGGCGGCAG (double strand) [mCpG 17 bp] |  |  | binds | no binding
